Data reported in paper PMC7124466.

By UniProt entry, the sequences of proteins in these tests, tags left out. Where a name states a change or a piece, a line headed by the entry shows the natural chain unless it says otherwise.
UniProt Q12335: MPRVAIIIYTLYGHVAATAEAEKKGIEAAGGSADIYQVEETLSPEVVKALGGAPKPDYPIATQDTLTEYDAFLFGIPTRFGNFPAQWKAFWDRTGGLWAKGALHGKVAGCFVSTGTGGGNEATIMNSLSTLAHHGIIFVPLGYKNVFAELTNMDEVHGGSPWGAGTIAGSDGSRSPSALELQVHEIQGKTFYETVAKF

B1: YCP4 (protein, UniProt P25349 1-247)
chain: MVKIAIITYSTYGHIDVLAQAVKKGVEAAGGKADIYRVEETLPDEVLTKMNAPQKPEDIPVATEKTLLEYDAFLFGVPTRFGNLPAQWSAFWDKTGGLWAKGSLNGKAAGIFVSTSSYGGGQESTVKACLSYLAHHGIIFLPLGYKNSFAELASIEEVHGGSPWGAGTLAGPDGSRTASPLELRIAEIQGKTFYETAKKLFPAKEAKPSTEKKTTTSDAAKRQTKPAAATTAEKKEDKGLLSCCTVM

Assays:
[1] = molecular target: T1, KGD1 (yeast (endogenous in mitochondria of strain YPH499)) (UniProt P20967); assay: cross-linking; intact purified yeast mitochondria (5 mg/ml, isotonic buffer: 250 mM sucrose, 1 mM EDTA, 10 mM MOPS-KOH, pH 7.2) crosslinked in organello with 2 mM CBDPS-H8/D8, 21 °C 10 min then on ice 110 min; Lys-Lys inter-protein crosslinked peptides enriched (SCX, avidin) and identified by LC-MS/MS, FDR 2%
T1 sequence: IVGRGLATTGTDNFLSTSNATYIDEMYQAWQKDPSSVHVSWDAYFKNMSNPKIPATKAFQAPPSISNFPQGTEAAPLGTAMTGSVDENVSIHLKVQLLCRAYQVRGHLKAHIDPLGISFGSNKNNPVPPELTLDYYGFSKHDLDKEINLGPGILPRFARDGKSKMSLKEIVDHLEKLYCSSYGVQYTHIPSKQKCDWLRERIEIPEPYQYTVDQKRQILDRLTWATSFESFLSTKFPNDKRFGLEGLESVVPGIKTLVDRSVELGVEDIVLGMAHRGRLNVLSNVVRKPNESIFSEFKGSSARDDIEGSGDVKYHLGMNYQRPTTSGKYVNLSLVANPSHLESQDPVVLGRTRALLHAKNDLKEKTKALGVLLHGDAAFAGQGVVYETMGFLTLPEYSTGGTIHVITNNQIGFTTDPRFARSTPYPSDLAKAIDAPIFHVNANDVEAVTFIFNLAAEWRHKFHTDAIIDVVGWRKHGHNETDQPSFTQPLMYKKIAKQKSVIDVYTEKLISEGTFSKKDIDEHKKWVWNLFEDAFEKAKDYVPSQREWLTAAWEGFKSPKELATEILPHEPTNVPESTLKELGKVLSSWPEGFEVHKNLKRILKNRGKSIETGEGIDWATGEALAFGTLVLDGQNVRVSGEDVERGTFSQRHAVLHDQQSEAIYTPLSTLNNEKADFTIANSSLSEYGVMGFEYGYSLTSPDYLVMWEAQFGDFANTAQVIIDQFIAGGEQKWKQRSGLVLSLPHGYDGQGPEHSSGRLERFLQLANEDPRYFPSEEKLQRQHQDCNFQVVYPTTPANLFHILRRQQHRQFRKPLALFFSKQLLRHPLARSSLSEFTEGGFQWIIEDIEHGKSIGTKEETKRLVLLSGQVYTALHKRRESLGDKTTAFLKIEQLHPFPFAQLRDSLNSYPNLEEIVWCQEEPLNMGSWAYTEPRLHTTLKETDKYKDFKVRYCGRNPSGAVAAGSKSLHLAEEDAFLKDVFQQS

[2] = molecular target: PST2 (yeast (endogenous in mitochondria of strain YPH499)) (UniProt Q12335); assay: as above

Row | Molecule | binding [1] | binding [2]
1 | KGD2 | binds | –
2 | B1 | – | binds

Results are given in words; binding and its absence hold for the method and conditions named. Binding seen in cells or lysates may run through a third protein. Binding calls can cover weak binding; strength is not graded here.
